Test results as given in US20190085081A1.
No constants are given. Whether binding was seen depends on the method and setting. For part of these data: A result given as binding can be weak or reduced; the word gives no strength.

Tests used:
ΔMucin 2 = assay: far Western blot of lysates of transfected HEK293T cells, probed with MMRN2 protein lysate
ΔMucin 1 = assay: as above
[1] = target: CLEC14A with the sushi domain deleted, N-terminal HA tag; assay: as above
[2] = target: CLEC14A with the C-type lectin domain (CTLD) deleted, N-terminal HA tag; assay: as above
[3] = target: CLEC14A with the sushi domain deleted, N-terminal HA tag; assay: far Western blot with MMRN2 protein lysate, non-reduced
[4] = target: CLEC14A with the C-type lectin domain (CTLD) deleted, N-terminal HA tag; assay: as above

B1: MMRN2 overexpressed in HEK293T cells (ligand, not shown: small tags and cut ends)
chain: QASSTSLSDLQSSRTPGVWKAEAEDTGKDPVGRNWCPYPMSKLVTLLALCKTEKFLIHSQQPCPQGAPDCQKVKVMYRMAHKPVYQVKQKVLTSLAWRCCPGYTGPNCEHHDSMAIPEPADPGDSHQEPQDGPVSFKPGHLAAVINEVEVQQEQQEHLLGDLQNDVHRVADSLPGLWKALPGNLTAAVMEANQTGHEFPDRSLEQVLLPHVDTFLQVHFSPIWRSFNQSLHSLTQAIRNLSLDVEANRQAISRVQDSAVARADFQELGAKFEAKVQENTQRVGQLRQDVEDRLHAQHFTLHRSISELQADVDTKLKRLHKAQEAPGTNGSLVLATPGAGARPEPDSLQARLGQLQRNLSELHMTTARREEELQYTLEDMRATLTRHVDEIKELYSESDETFDQISKVERQVEELQVNHTALRELRVILMEKSLIMEENKEEVERQLLELNLTLQHLQGGHADLIKYVKDCNCQKLYLDLDVIREGQRDATRALEETQVSLDERRQLDGSSLQALQNAVDAVSLAVDAHKAEGERARAATSRLRSQVQALDDEVGALKAAAAEARHEVRQLHSAFAALLEDALRHEAVLAALFGEEVLEEMSEQTPGPLPLSYEQIRVALQDAASGLQEQALGWDELAARVTALEQASEPPRPAEHLEPSHDAGREEAATTALAGLARELQSLSNDVKNVGRCCEAEAGAGAASLNASLDGLHNALFATQRSLEQHQRLFHSLFGNFQGLMEANVSLDLGKLQTMLSRKGKKQQKDLEAPRKRDKKEAEPLVDIRVTGPVPGALGAALWEAGSPVAFYASFSEGTAALQTVKFNTTYINIGSSYFPEHGYFRAPERGVYLFAVSVEFGPGPGTGQLVFGGHHRTPVCTTGQGSGSTATVFAMAELQKGERVWFELTQGSITKRSLSGTAFGGFLMFKT
ΔMucin 2
  binding: binds
ΔMucin 1
  binding: binds
[1]
  binding: no binding
[2]
  binding: no binding
[3]
  binding: no binding
[4]
  binding: no binding
